In PubChem BioAssay AID588590 (National Center for Advancing Translational Sciences (NCATS), 2011):
The whole screen tested about 390,000 compounds, of which about 4,000 (1%) were called active. The shares of active, inactive and inconclusive entries below differ from those in the screen. Calls follow the shape of the dose curve; as a rule, active = well fitted inhibition curve with a large enough effect; inconclusive = small, poorly fitted or top-dose-only effect, or another doubt; inactive = no such curve, though single readings can be large or run the other way. Where the call is inconclusive, the potency comes from a doubtful curve fit.

The chains behind the UniProt entries cited, without tags or fusion partners. Where a name states a change or a piece, a line headed by the entry shows the natural chain unless it says otherwise.
UniProt Q9UNA4: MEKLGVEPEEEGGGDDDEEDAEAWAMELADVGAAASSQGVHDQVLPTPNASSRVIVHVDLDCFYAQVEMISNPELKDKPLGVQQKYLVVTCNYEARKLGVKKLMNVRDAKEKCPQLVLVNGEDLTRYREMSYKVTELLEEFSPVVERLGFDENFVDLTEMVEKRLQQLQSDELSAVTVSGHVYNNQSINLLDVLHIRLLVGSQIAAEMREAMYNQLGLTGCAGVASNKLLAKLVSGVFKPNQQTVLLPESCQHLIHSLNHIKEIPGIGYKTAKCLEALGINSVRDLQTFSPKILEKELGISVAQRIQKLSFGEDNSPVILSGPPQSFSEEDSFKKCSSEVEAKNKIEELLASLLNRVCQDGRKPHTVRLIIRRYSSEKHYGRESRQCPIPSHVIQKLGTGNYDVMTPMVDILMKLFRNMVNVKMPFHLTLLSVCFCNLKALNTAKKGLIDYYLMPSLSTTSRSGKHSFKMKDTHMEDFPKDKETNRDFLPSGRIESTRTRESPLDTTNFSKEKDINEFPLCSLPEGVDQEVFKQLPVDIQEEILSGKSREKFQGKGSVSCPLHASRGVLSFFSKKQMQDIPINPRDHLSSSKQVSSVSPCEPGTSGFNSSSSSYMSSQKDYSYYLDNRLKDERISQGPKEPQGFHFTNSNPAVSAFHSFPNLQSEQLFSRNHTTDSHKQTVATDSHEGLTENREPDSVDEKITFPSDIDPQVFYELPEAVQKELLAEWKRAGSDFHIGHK

molecular target: DNA polymerase iota (Homo sapiens) (UniProt Q9UNA4); test: qHTS for Inhibitors of Polymerase Iota; settings: Pol iota fluorescent replication assay, 10 min; series mostly up to 115 µM
Summary of the method: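 Fluorescent replication assay read twice, at 0 min and 10 min after adding 50 nM (final) substrate. Enzyme (10 nM) and compounds were first incubated 15 min at room temperature; enzyme-free buffer wells were negative controls.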
Potency is read from the fitted curve at half-maximal effect.

SMILES	Potency
N#CC1=C(N)Oc2n[nH]c(-c3cccs3)c2C1c1cccnc1 (stereo unspecified)	inconclusive: 31.6 µM [inhibitor, partial curve, poor fit]
CC(=C/c1ccco1)/C=N/NC(=O)Cc1cccn1C	active: 56.2 µM
Cc1ccc(-c2nnc(Nc3ccc(S(N)(=O)=O)cc3)c3ccccc23)cc1S(=O)(=O)N1CCCCC1	inconclusive: 100 µM [inhibitor, partial curve, poor fit]
CCOC(=O)CCCc1sc(N)nc1-c1[nH]c(=O)[nH]c1C	inconclusive: 17.8 µM [inhibitor, full curve, poor fit]
CC1=C(C)CS(=O)N(S(=O)(=O)c2ccc(Cl)cc2)C1 (stereo unspecified)	inconclusive: 14.1 µM [inhibitor, partial curve, poor fit]
C#CCOc1ccccc1/C=N/NC(=O)c1ccccc1OCc1ccccc1	inactive
O=C(c1cc(S(=O)(=O)N2CCCCC2)ccc1F)N1CCCCC1	inconclusive: 112 µM [inhibitor, partial curve, poor fit]
CCc1ccccc1NC1=NCC(=O)N1Cc1ccc(OC)cc1	inconclusive: 39.8 µM [inhibitor, single point]
O=C(CC1SC(=Nc2ccccc2)N(Cc2ccccn2)C1=O)Nc1cccc(Cl)c1 (stereo unspecified)	inconclusive: 10 µM [inhibitor, partial curve, poor fit]
COc1cc(/C=C(\C(=O)O)c2ccc(S(=O)(=O)N3CCCC3)s2)cc(OC)c1	inconclusive: 50.1 µM [inhibitor, partial curve]
Cc1ccc(/C=N/n2cnc3sc4c(c3c2=O)CCCC4)o1	inconclusive: 22.4 µM [inhibitor, partial curve, poor fit]
O=C(c1ccc2c(c1)OCO2)N1CCN(c2ccccc2F)CC1	inconclusive: 100 µM [inhibitor, single point]
O=C(NCCc1c[nH]c2ccccc12)C1CCC(=O)N(CCc2cccc(F)c2)C1 (stereo unspecified)	inactive
Cc1ccc(OC(=O)CSc2nnc(CNC(=O)c3ccccc3)o2)cc1	inactive
Cc1cc(-c2csc(N)n2)c(C)n1CCc1ccccc1	inconclusive: 11.2 µM [inhibitor, partial curve, poor fit]
Cc1ccc2nc(NCCCN3CCOCC3)c(C=NCCCN3CCOCC3)c(=O)n2c1	inconclusive: 31.6 µM [inhibitor, partial curve, poor fit]
O=C(NCc1ccc(F)cc1)C(Cc1ccccc1)n1cccc1 (stereo unspecified)	inconclusive: 79.4 µM [inhibitor, partial curve, poor fit]
Cc1ccc2c(c1)-c1c(cnn1CC(=O)Nc1ccccc1C#N)CO2	inconclusive: 89.1 µM [inhibitor, single point]
C=CC(=O)Nc1ccc(Nc2nc(NC3CCC(N(C)C)CC3)nc3c2ncn3C(C)C)cc1 (stereo unspecified)	inconclusive: 35.5 µM [inhibitor, partial curve]
COc1ccc(Br)cc1CNc1ccc(N2CCOCC2)cc1	inconclusive: 0.708 µM [inhibitor, full curve, poor fit]
Cc1ccccc1NC(=O)CCS(=O)(=O)c1ccc(Br)s1	inconclusive: 35.5 µM [inhibitor, partial curve, poor fit]

Part of the list above, with each value named.
CCOC(=O)CCCc1sc(N)nc1-c1[nH]c(=O)[nH]c1C
  Potency: inconclusive: 17.8 µM [inhibitor, full curve, poor fit]
Cc1ccccc1NC(=O)CCS(=O)(=O)c1ccc(Br)s1
  Potency: inconclusive: 35.5 µM [inhibitor, partial curve, poor fit]

Following part.

SMILES	Potency
Oc1c(CN2CCN(c3ccccn3)CC2)cc(Cl)c2cccnc12	inactive
CN(Cc1ccccc1)C(=O)c1cn(C)c2ccc(S(=O)(=O)N(C)C3CCCCC3)cc2c1=O	inactive
Cn1cc(C(=O)N2CCN(C(=O)c3ccco3)CC2)c2c3ccccc3n(C)c2c1=O	inconclusive: 70.8 µM [inhibitor, partial curve, poor fit]
CCSc1c([N+](=O)[O-])c(=O)n(-c2ccccc2)c2ccccc12	inconclusive: 17.8 µM [inhibitor, partial curve]
Cc1nn(CC(C)C)c(Cl)c1C(=O)N(c1ccc(Cl)cc1F)S(C)(=O)=O	inactive
CCOC(=O)CC1C(=O)NCCN1c1nc2c(C)cccn2c(=O)c1/C=C1\SC(=S)N(C(C)CC)C1=O (stereo unspecified)	active: 39.8 µM
CNC(=O)/C(C#N)=C/c1c(N2CCN(C)CC2)nc2c(C)cccn2c1=O	inconclusive: 100 µM [inhibitor, single point]
NS(=O)(=O)c1ccc2c(c1)C1C=CCC1C(C1CC=CCC1)N2 (stereo unspecified)	inconclusive: 12.6 µM [inhibitor, partial curve, poor fit]
CCOC(=O)c1c(N)sc(=S)c2c1CCC2	inconclusive: 17.8 µM [inhibitor, partial curve, poor fit]
C=CCN1CCc2c(cc(O)c(O)c2Br)[C@@H](c2ccccc2)C1	inconclusive: 31.6 µM [inhibitor, partial curve]
N=C1C(c2nc3ccccc3s2)=C(O)CN1NC(=O)c1ccco1	inconclusive: 50.1 µM [inhibitor, partial curve]
COc1c(-c2ccc(O)c(O)c2)oc2cc(O)cc(O)c2c1=O	inconclusive: 35.5 µM [inhibitor, partial curve, poor fit]
N#CC(C#N)=C1NC2(CCCCC2)Cc2ccccc21	inactive
CCOC(=O)c1ccc(S(=O)(=O)N2CC(=O)Nc3ccccc32)cc1	inconclusive: 39.8 µM [inhibitor, full curve]
CCOc1cccc2sc(N(CCN(CC)CC)C(=O)c3ccco3)nc12	inactive
Cc1c(Cl)cccc1NC(=O)C1COc2ccccc2O1 (stereo unspecified)	inconclusive: 79.4 µM [inhibitor, partial curve, poor fit]
COC(=O)c1cc(NC(=O)c2cccc([N+](=O)[O-])c2C)ccc1Cl	inconclusive: 79.4 µM [inhibitor, single point]
Cc1cc(C)cc(NC(=O)CCc2c(C)nc3c4cccnc4nn3c2C)c1	inactive
Cn1c(COc2ccccc2O)[n+](C)c2ccccc21	inconclusive: 50.1 µM [inhibitor, partial curve]
CC(C)c1nc(N2CCN(C(=O)c3ccccc3)CC2)c(C#N)c2c1COC(C)(C)C2	inconclusive: 39.8 µM [inhibitor, single point]
